No constants are given. Whether binding was seen depends on the method and setting. In cells and extracts the contact can be indirect. Some results given as binding are weak or reduced against the parent protein; the word gives no strength.
Key:
[1] = molecular target: Rluc tagged BST-2 (human) (UniProt Q10589); assay: FRET or BRET; BRET2 in co-transfected 293T cells, EYFP and Rluc fusions, substrate DeepBlueC 5 μM; cells treated with DMSO or 5 µM 2-thio-6-azauridine for 24 h; HA tagged BST-2 co-expressed in the Vpu/β-TrCP2 experiment
Rluc tagged β-TrCP2 = Rluc tagged β-TrCP2 (UniProt Q9UKB1); assay: as above
HA tagged BST-2 (human) = HA tagged BST-2 (human) (UniProt Q10589); assay: co-IP; […] (20 mM Tris–HCl pH 7.5, 200 mM NaCl, 1 % Triton X-100), […]
HA tagged β-TrCP2 = HA tagged β-TrCP2 (UniProt Q9UKB1); assay: as above

Protein sequences, listed by entry. Tags and fused reporters are not part of them.
UniProt Q9UKB1, whole entry: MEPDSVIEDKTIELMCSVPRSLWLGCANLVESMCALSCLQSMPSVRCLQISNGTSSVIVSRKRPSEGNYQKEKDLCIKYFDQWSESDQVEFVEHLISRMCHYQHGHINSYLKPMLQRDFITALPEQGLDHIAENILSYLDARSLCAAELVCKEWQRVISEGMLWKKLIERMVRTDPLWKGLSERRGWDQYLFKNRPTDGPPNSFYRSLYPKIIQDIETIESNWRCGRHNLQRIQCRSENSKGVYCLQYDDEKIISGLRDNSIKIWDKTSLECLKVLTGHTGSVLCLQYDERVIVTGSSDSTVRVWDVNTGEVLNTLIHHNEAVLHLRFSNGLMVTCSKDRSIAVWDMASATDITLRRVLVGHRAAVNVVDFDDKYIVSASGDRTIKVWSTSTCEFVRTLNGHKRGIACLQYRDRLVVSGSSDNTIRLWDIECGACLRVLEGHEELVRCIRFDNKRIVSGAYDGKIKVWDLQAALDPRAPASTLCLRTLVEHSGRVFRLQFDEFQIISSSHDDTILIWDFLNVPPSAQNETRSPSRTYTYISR

Substance | binding [1] | binding (Rluc tagged β-TrCP2) | binding (HA tagged BST-2 (human)) | binding (HA tagged β-TrCP2)
EYFP tagged Vpu (S52/56N) (from UniProt P05923 1-81) | binds |  |  | 
EYFP tagged Vpu (from UniProt P05923 1-81) | binds | binds |  | 
Vpu (codon-optimized, from plasmid pVphu) (from UniProt P05923 1-81) |  |  | binds | binds

Source: paper PMC4776379
